According to article PMC3043051:
No constants are given. Whether binding was seen depends on the method and setting. Binding seen in cells or lysates may run through a third protein. Some results given as binding are weak or reduced against the parent protein; the word gives no strength.

The chains behind the UniProt entries cited, without tags or fusion partners. Residues count along the entry.
UniProt P31345, residues 1-33: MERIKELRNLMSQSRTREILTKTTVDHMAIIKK
UniProt P31341, residues 676-757: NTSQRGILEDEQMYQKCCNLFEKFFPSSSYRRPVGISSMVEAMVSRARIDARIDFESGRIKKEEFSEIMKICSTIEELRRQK

Molecular target: PB2 construct (amino acids 1–33) (influenza virus strain A/Victoria/3/1975(H3N2)) (UniProt P31345)
Assay: pull-down

PB1-(676–757), C-terminal fragment of the influenza polymerase PB1 subunit, N-terminal FLAG tag (from UniProt P31341 676-757) (domain or fragment)
binding: binds
